{"sequences": {"note": "Protein sequences, listed by entry. Tags and fused reporters are not part of them.", "UniProt O95863": "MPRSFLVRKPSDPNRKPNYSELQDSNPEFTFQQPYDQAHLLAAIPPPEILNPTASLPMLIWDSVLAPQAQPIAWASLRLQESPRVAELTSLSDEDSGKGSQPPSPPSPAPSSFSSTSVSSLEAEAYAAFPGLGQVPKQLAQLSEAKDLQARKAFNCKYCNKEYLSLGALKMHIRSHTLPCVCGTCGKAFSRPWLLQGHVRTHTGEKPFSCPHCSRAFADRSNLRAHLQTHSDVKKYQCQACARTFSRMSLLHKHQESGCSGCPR"}, "source": "paper PMC11996917", "about": "“An inherited predisposition allele promotes gastric cancer via enhancing deubiquitination-mediated activation of epithelial-to-mesenchymal transition signaling”", "target": "T1, USP47 (human (endogenous in HGC-27)) (UniProt Q96K76)", "T1 sequence": "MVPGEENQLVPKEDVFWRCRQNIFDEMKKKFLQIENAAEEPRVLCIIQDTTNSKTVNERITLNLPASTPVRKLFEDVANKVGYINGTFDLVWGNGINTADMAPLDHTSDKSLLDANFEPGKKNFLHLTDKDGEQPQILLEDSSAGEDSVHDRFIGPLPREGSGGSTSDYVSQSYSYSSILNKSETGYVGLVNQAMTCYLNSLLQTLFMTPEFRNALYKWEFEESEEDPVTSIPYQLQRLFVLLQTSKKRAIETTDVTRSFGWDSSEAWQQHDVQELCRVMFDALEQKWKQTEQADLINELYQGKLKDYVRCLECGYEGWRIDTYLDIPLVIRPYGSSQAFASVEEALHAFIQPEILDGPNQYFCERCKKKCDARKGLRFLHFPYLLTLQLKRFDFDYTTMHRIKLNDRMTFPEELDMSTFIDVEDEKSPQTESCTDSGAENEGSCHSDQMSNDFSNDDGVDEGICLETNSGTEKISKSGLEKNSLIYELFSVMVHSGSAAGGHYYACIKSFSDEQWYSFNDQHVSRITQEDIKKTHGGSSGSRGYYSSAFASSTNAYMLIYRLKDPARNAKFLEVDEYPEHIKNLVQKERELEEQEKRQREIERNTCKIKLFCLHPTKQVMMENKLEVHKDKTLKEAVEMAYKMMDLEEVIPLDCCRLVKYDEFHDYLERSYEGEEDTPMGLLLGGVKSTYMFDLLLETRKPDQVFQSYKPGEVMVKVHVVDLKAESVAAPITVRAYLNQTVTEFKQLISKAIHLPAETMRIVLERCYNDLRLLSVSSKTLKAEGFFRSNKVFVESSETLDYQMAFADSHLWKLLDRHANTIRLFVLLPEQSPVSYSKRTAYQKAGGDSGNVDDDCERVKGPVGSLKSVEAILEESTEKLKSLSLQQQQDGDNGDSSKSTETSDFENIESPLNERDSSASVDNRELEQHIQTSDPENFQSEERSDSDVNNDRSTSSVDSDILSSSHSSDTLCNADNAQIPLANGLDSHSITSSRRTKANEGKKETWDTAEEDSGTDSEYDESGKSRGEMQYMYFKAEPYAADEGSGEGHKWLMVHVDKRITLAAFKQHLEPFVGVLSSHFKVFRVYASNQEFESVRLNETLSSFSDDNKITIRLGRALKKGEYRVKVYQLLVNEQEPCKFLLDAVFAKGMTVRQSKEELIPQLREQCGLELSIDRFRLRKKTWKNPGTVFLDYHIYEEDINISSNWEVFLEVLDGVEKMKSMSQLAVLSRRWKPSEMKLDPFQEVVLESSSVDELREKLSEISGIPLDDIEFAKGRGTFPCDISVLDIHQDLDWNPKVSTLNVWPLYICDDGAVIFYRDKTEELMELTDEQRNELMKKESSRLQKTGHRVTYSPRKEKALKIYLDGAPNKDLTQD", "assay": "co-IP; whole-cell lysates of HGC-27 cells (20 mM Tris-HCl pH 8.0, 150 mM NaCl, 1 mM EDTA, 0.5% NP40, 10% glycerol); IP with anti-USP47 antibody (IgG as control), protein A/G magnetic beads, 4°C; immunoblot with anti-USP47 or anti-Snai1", "note": "These are yes or no findings as the source states them, for the method shown. Binding seen in cells or lysates may run through a third protein. Some results given as binding are weak or reduced against the parent protein; the word gives no strength."}
{"substance": "Snai1 (from UniProt O95863 1-264)", "values": [{"measurement": "binding", "result": "binds"}]}
